No constants are given. Whether binding was seen depends on the method and setting. Some binding calls cover weakened binding; strength is not graded here. Sequences can lack the tags named with a protein.
Tests used:
Fc-HRS(2-60) (human) [1] = molecular target: T1, Fc-HRS(2-60) (human) (UniProt P12081); experiment: SPR co-injection: Fc-HRS(2-60) (2000 nM) captured on immobilized 12H6, then 200 nM NRP2 [panel A]
T1 sequence: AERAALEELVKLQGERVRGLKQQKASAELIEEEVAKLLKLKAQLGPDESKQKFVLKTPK

Fc-HRS(2-60) (human) [2] = molecular target: T1, Fc-HRS(2-60) (human); experiment: SPR: 50 nM human NRP2 as analyte over immobilized Fc-HRS(2-60) [panel A]
Fc-HRS(2-60) (human) [3] = molecular target: T1, Fc-HRS(2-60) (human); experiment: SPR; Fc-HRS(2-60) immobilized, 50 nM NRP2 analyte
Fc-HRS(2-60) (human) [4] = molecular target: T1, Fc-HRS(2-60) (human); experiment: SPR; antibody immobilized
Fc-HRS(2-60) (human) [5] = molecular target: T1, Fc-HRS(2-60) (human); experiment: SPR; Fc-HRS(2-60) immobilized; calcium-free running buffer, 5 mM CaCl2, MgCl2, ZnCl2 or EDTA added to the analyte
Fc-HRS(2-60) (human) [6] = molecular target: T1, Fc-HRS(2-60) (human); experiment: SPR co-injection: Fc-HRS(2-60) (2000 nM) captured on immobilized 13E9, then 200 nM NRP2 [panel D]
Fc-HRS(2-60) (human) [7] = molecular target: T1, Fc-HRS(2-60) (human); experiment: SPR; Fc-HRS(2-60) immobilized, 50 nM analyte
Fc-HRS(2-60) (human) [8] = molecular target: T1, Fc-HRS(2-60) (human); experiment: SPR: 20 nM NRP2 as analyte over immobilized Fc-HRS(2-60) [panel A]
Fc-HRS(2-60) (human) [9] = molecular target: T1, Fc-HRS(2-60) (human); experiment: SPR: 20 nM NRP2 over immobilized Fc-HRS(2-60); running buffer 50 mM HEPES, 300 mM NaCl, 0.005% Tween20, pH 7.4; analyte supplemented with 5 mM of the named additive [panel B]
Fc-HRS(2-60) (human) [10] = molecular target: T1, Fc-HRS(2-60) (human); experiment: SPR co-injection: Fc-HRS(2-60) (2000 nM) captured on immobilized 4D4, then 200 nM NRP2 [panel C]
Fc-HRS(2-60) (human) [11] = molecular target: T1, Fc-HRS(2-60) (human); experiment: SPR (ProteOn XPR36): 50 nM NRP2 as analyte over immobilized Fc-HRS(2-60)
Fc-HRS(2-60) (human) [12] = molecular target: T1, Fc-HRS(2-60) (human); experiment: SPR; Fc-HRS(2-60) immobilized
Fc-HRS(2-60) (human) [13] = molecular target: T1, Fc-HRS(2-60) (human); experiment: SPR co-injection; antibody immobilized, 2000 nM Fc-HRS(2-60) then 200 nM NRP2
Fc-HRS(2-60) (human) [14] = molecular target: T1, Fc-HRS(2-60) (human); experiment: SPR; Fc-HRS(2-60) immobilized, 20 nM NRP2 analyte
Fc-HRS(2-60) (human) [15] = molecular target: T1, Fc-HRS(2-60) (human); experiment: SPR: 4D4 immobilized; analyte a pre-incubated mixture of 100 nM Fc-HRS(2-60) and 200 nM NRP2 [panel B]
Fc-HRS(2-60) (human) [16] = molecular target: T1, Fc-HRS(2-60) (human); experiment: SPR: 20 nM NRP2 over immobilized Fc-HRS(2-60); running buffer 50 mM HEPES, 300 mM NaCl, 0.005% Tween20, pH 7.4; analyte supplemented with 5 mM of the named additive [panel A]

- binding (Fc-HRS(2-60) (human) [1]): binds
- binding (Fc-HRS(2-60) (human) [2]): binds
- binding (Fc-HRS(2-60) (human) [3]): binds
- binding (Fc-HRS(2-60) (human) [4]): binds
- binding (Fc-HRS(2-60) (human) [5]): binds
- binding (Fc-HRS(2-60) (human) [6]): binds
- binding (Fc-HRS(2-60) (human) [7]): binds
- binding (Fc-HRS(2-60) (human) [8]): binds
- binding (Fc-HRS(2-60) (human) [9]): binds
- binding (Fc-HRS(2-60) (human) [10]): binds
- binding (Fc-HRS(2-60) (human) [11]): binds
- binding (Fc-HRS(2-60) (human) [12]): binds
- binding (Fc-HRS(2-60) (human) [13]): binds
- binding (Fc-HRS(2-60) (human) [14]): binds
- binding (Fc-HRS(2-60) (human) [15]): binds
- binding (Fc-HRS(2-60) (human) [16]): binds
B1: NRP2-Fc (R&D Systems #2215-N2) (Fc fusion, human, UniProt O60462 23-864, looked up, not shown: a dimerising Fc or GST)
chain: QPDPPCGGRLNSKDAGYITSPGYPQDYPSHQNCEWIVYAPEPNQKIVLNFNPHFEIEKHDCKYDFIEIRDGDSESADLLGKHCGNIAPPTIISSGSMLYIKFTSDYARQGAGFSLRYEIFKTGSEDCSKNFTSPNGTIESPGFPEKYPHNLDCTFTILAKPKMEIILQFLIFDLEHDPLQVGEGDCKYDWLDIWDGIPHVGPLIGKYCGTKTPSELRSSTGILSLTFHTDMAVAKDGFSARYYLVHQEPLENFQCNVPLGMESGRIANEQISASSTYSDGRWTPQQSRLHGDDNGWTPNLDSNKEYLQVDLRFLTMLTAIATQGAISRETQNGYYVKSYKLEVSTNGEDWMVYRHGKNHKVFQANNDATEVVLNKLHAPLLTRFVRIRPQTWHSGIALRLELFGCRVTDAPCSNMLGMLSGLIADSQISASSTQEYLWSPSAARLVSSRSGWFPRIPQAQPGEEWLQVDLGTPKTVKGVIIQGARGGDSITAVEARAFVRKFKVSYSLNGKDWEYIQDPRTQQPKLFEGNMHYDTPDIRRFDPIPAQYVRVYPERWSPAGIGMRLEVLGCDWTDSKPTVETLGPTVKSEETTTPYPTEEEATECGENCSFEDDKDLQLPSGFNCNFDFLEEPCGWMYDHAKWLRTTWASSSSPNDRTFPDDRNFLRLQSDSQREGQYARLISPPVHLPRSPVCMEFQYQATGGRGVALQVVREASQESKLLWVIREDQGGEWKHGRIILPSYDMEYQIVFEGVIGKGRSGEIAIDDIRISTDVPLENCMEPISAFAGENFKVDIPEIHEREGYEDEIDDEYEVDWSNSSSATSGSGAPSTDKEKSWLYTLDP
